Patent US20030073629A1, “Omi and domains thereof that disrupt IAP-caspase interaction” (priority 2001, published 2003)
No constants are given. Whether binding was seen depends on the method and setting. For part of these data: In cells and extracts the contact can be indirect. Some entries that bind do so weakly or less than the wild type. For part of these data: Tags and fused reporters may be left off the sequences shown. One block for each binder: values may come before it.

Amino acid sequences for entries named in this document (tags omitted). A change or cut given only in a name is not applied to a line headed by its entry. Chains listed by the source or under a name are the forms on record and can include a tag or linker. Residues count along the entry.
UniProt P98170: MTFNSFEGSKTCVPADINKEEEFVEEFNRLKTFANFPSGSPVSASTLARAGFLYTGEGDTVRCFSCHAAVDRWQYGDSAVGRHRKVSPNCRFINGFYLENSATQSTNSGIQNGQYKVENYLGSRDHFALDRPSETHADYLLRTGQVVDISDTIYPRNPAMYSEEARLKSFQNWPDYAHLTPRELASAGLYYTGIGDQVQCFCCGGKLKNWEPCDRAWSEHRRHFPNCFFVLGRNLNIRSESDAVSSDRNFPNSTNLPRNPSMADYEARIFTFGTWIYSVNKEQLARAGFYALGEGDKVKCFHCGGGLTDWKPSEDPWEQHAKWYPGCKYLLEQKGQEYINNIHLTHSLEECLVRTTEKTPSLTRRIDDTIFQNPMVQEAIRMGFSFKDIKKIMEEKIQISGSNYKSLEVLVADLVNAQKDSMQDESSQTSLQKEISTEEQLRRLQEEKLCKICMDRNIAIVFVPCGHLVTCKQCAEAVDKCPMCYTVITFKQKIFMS
GST-BIR1, 2 fusion protein: residues 1-240 of P98170
GST-BIR3 fusion protein (BIR3 domain of human XIAP fused to GST): residues 238-358 of P98170
UniProt Q13490: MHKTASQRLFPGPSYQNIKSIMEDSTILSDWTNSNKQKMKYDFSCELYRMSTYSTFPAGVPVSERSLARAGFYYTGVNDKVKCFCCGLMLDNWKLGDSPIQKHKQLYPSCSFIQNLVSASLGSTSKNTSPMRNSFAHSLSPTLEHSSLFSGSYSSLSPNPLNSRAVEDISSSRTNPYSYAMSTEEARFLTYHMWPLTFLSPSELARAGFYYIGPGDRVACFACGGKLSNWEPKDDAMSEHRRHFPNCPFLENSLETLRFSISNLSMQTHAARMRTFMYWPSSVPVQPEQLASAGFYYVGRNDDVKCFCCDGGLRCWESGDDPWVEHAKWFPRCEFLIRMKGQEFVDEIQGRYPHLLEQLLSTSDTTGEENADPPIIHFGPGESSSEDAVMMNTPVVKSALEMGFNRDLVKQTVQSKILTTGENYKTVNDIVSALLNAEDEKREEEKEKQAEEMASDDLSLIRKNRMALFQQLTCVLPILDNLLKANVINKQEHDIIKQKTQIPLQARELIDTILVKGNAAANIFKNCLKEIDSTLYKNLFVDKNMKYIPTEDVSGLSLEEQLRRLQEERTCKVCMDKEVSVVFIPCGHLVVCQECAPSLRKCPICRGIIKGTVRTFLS
UniProt Q13489: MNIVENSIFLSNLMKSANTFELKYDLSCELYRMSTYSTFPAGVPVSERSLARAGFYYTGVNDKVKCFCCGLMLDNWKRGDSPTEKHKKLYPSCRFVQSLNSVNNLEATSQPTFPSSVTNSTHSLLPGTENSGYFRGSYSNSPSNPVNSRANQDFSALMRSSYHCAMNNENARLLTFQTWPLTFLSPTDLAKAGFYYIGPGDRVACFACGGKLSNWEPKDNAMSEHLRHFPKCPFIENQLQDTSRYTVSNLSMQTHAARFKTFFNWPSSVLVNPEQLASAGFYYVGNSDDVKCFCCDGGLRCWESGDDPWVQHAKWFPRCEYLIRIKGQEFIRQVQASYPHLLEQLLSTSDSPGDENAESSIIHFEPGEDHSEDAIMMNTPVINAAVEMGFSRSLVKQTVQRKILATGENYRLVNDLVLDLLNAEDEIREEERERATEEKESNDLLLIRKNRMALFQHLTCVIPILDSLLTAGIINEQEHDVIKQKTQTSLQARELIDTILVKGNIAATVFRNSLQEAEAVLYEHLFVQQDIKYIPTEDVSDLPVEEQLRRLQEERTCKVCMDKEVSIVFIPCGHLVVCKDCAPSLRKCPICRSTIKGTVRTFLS

How the values were obtained:
[1] = target: GST-BIR1, 2 fusion protein (human) (UniProt P98170); assay: GST pull-down with purified recombinant proteins, Coomassie gel
[2] = target: GST-BIR3 fusion protein (BIR3 domain of human XIAP fused to GST) (human) (UniProt P98170); assay: as above
[3] = target: XIAP (human) (UniProt P98170); assay: His6-tagged protein on Talon resin, pull-down of ^35S-labeled in vitro-translated IAP, autoradiography
[4] = target: cIAP1 (UniProt Q13490); assay: as above
[5] = target: cIAP2 (UniProt Q13489); assay: as above
[6] = target: GST-BIR3 fusion protein (BIR3 domain of human XIAP fused to GST) (human) (UniProt P98170); assay: GST-BIR3 pull-down from undepleted and Smac-depleted 293 extracts, far-western
[7] = target: XIAP (human) (UniProt P98170); assay: co-immunoprecipitation with Flag antibody from transfected 293T cells, XIAP immunoblot
[8] = target: GST-BIR3 fusion protein (BIR3 domain of human XIAP fused to GST) (human) (UniProt P98170); assay: GST-BIR3 precipitation of transfected 293T cell extracts, Flag immunoblot

B1: C-terminal His6-tagged recombinant wild type mature Omi (Omi lacking the first 133 residues) (enzyme)
chain: AVPSPPPASPRSQYNFIADVVEKTAPAVVYIEILDRHPFLGREVPISNGSGFVVAADGLIVTNAHVVADRRRVRVRLLSGDTYEAVVTAVDPVADIATLRIQTKEPLPTLPLGRSADVRQGEFVVAMGSPFALQNTITSGIVSSAQRPARDLGLPQTNVEYIQTDAAIDFGNSGGPLVNLDGEVIGVNTMKVTAGISFAIPSDRLREFLHRGEKKNSSSGISGSQRRYIGVMMLTLSPSILAELQLREPSFPDVQHGVLIHKVILGSPAHRAGLRPGDVILAIGEQMVQNAEDVYEAVRTQSQLAVQIRRGRETLTLYVTPEVTEHHHHHH
- binding [1]: binds
- binding [2]: binds
- binding [3]: binds
- binding [4]: binds
- binding [5]: binds

B2: Omi-S306A (C-terminal His6-tagged recombinant mature Omi, active site Ser306 to Ala) (enzyme)
chain: AVPSPPPASPRSQYNFIADVVEKTAPAVVYIEILDRHPFLGREVPISNGSGFVVAADGLIVTNAHVVADRRRVRVRLLSGDTYEAVVTAVDPVADIATLRIQTKEPLPTLPLGRSADVRQGEFVVAMGSPFALQNTITSGIVSSAQRPARDLGLPQTNVEYIQTDAAIDFGNAGGPLVNLDGEVIGVNTMKVTAGISFAIPSDRLREFLHRGEKKNSSSGISGSQRRYIGVMMLTLSPSILAELQLREPSFPDVQHGVLIHKVILGSPAHRAGLRPGDVILAIGEQMVQNAEDVYEAVRTQSQLAVQIRRGRETLTLYVTPEVTEHHHHHH
- binding [2]: binds

B3: endogenous mature Omi from HEK293 cell extracts (38 kDa band) (enzyme)
chain: AVPSPPPASPRSQYNFIADVVEKTAPAVVYIEILDRHPFLGREVPISNGSGFVVAADGLIVTNAHVVADRRRVRVRLLSGDTYEAVVTAVDPVADIATLRIQTKEPLPTLPLGRSADVRQGEFVVAMGSPFALQNTITSGIVSSAQRPARDLGLPQTNVEYIQTDAAIDFGNSGGPLVNLDGEVIGVNTMKVTAGISFAIPSDRLREFLHRGEKKNSSSGISGSQRRYIGVMMLTLSPSILAELQLREPSFPDVQHGVLIHKVILGSPAHRAGLRPGDVILAIGEQMVQNAEDVYEAVRTQSQLAVQIRRGRETLTLYVTPEVTE
- binding [6]: binds

Results, then the binder that gave them:

- binding [7]: binds
B4: mature Omi processed in 293T cells from the C-terminal Flag-tagged wild type Omi precursor (enzyme, not shown: small tags and cut ends)
chain: AVPSPPPASPRSQYNFIADVVEKTAPAVVYIEILDRHPFLGREVPISNGSGFVVAADGLIVTNAHVVADRRRVRVRLLSGDTYEAVVTAVDPVADIATLRIQTKEPLPTLPLGRSADVRQGEFVVAMGSPFALQNTITSGIVSSAQRPARDLGLPQTNVEYIQTDAAIDFGNSGGPLVNLDGEVIGVNTMKVTAGISFAIPSDRLREFLHRGEKKNSSSGISGSQRRYIGVMMLTLSPSILAELQLREPSFPDVQHGVLIHKVILGSPAHRAGLRPGDVILAIGEQMVQNAEDVYEAVRTQSQLAVQIRRGRETLTLYVTPEVTE

- binding [8]: binds
B5: mature Omi-S/A released by caspase cleavage at the IETD site of GFP-IETD-AVP (enzyme)
chain: AVPSPPPASPRSQYNFIADVVEKTAPAVVYIEILDRHPFLGREVPISNGSGFVVAADGLIVTNAHVVADRRRVRVRLLSGDTYEAVVTAVDPVADIATLRIQTKEPLPTLPLGRSADVRQGEFVVAMGSPFALQNTITSGIVSSAQRPARDLGLPQTNVEYIQTDAAIDFGNAGGPLVNLDGEVIGVNTMKVTAGISFAIPSDRLREFLHRGEKKNSSSGISGSQRRYIGVMMLTLSPSILAELQLREPSFPDVQHGVLIHKVILGSPAHRAGLRPGDVILAIGEQMVQNAEDVYEAVRTQSQLAVQIRRGRETLTLYVTPEVTE
